# Data reported in PMC11468809, “An Outer Membrane Vesicle‐Based Permeation Assay (OMPA) for Assessing Bacterial Bioavailability” (Advanced Healthcare Materials, 2021).
# Conditions: not told
# Procedure: 30 µL of the OMV or liposome suspension were given on top of membrane filters of a 96‐well filter plate (MultiScreen 96‐well filter plates with 0.4 µm PCTE membrane). Afterwards, filters were dried at 37°C inside a Memmert UF55 universal oven (fan at 100%). This process was repeated another two times. A six‐fold coating procedure was only followed for SEM‐imaging purposes. For permeation studies, the obtained coatings were covered with 40 µl of 0.5% w/v agarose solution using a direct diplacement pipette. Prior to permeation studies, the bottom of the coated filter was also coated with a thin film of 0.5% w/v agarose using a small brush.
# Coated wells were incubated on the apical and basolateral side for 30 min with PBS (pH 7.4) at 37°C while shaken at 180 rpm. […] The absorbance of these dilutions was measured in a receiver plate using a Tecan Infinite 200 PRO (Tecan Trading AG, Maennedorf, Switzerland) plate reader. (Table S1, Supporting Information) 300 µL of fresh PBS were given into the acceptor wells of the receiver plate followed by absorbance measurements. Donor and acceptor plates were reassembled, incubated, and disassembled after 10, 20, 30, 45, 60, 90, and 120 min to measure the absorbance in the acceptor wells.
structure (smiles),measurement,value
CCC[C@@H]1C[C@@H](C(=O)N[C@@H]([C@H]2O[C@H](SC)[C@H](O)[C@@H](O)[C@H]2O)[C@H](C)Cl)N(C)C1 [clindamycin],permeation compared with the OMV-based models,permeate much better
